Measurements reported in patent US20030219839A1 (published 2003).
No constants are given. Whether binding was seen depends on the method and setting. Some binding calls cover weakened binding; strength is not graded here.

By UniProt entry, the sequences of proteins in these tests, tags left out. Residues count along the entry.
UniProt P01127, residues 82-190: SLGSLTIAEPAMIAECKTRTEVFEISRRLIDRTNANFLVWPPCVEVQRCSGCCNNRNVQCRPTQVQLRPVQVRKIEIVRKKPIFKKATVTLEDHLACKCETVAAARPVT

What was measured:
human PDGF-AB (human) = human PDGF-AB (human) (UniProt P04085+P01127); assay: solid phase ELISA: plate coated with the named form of PDGF, serial dilutions of mouse C1 Fab (axis in dilutions 1/x, no mass unit), OD
[1] = target: recombinant human platelet derived growth factor (PDGF-BB) (human) (UniProt P01127); assay: as above
[2] = target: recombinant human platelet derived growth factor (PDGF-BB) (human) (UniProt P01127); assay: competition ELISA (FIG. 20)
human PDGF M (human) = human PDGF M (human) (UniProt P04085); assay: solid phase ELISA
[3] = target: recombinant human platelet derived growth factor (PDGF-BB) (human) (UniProt P01127); assay: solid phase ELISA
[4] = target: recombinant human platelet derived growth factor (PDGF-BB) (human) (UniProt P01127); assay: competition ELISA (FIG. 18)
[5] = target: recombinant human platelet derived growth factor (PDGF-BB) (human) (UniProt P01127); assay: competition ELISA: antibody pre-incubated with 10 ng/ml PDGF-BB, then added to a plate coated with PDGF receptor beta/Fc; receptor-bound PDGF-BB detected by biotinylated anti-PDGF-BB antibody and streptavidin-alkaline phosphatase, OD405; blocked partner: PDGF receptor beta/Fc

Measured: binding

B1: C1 mouse anti-PDGF Fab (Fab, V domains shown)
VH: QVLLEQSGSELVRPGASVKLSCKASGYTFTSTWMNWVKKRPDQGLEWIGRIDPYDSETHYNQKFKDKAILTVDKSSSTAYMQLSRLTSEDSAVYYCARGGHMITPAMDYWGQGTSVTVSS
VL: VQVLTQSPAIMSASPGEKVTITCTASSSVSYMHWFQQKPGTSPKLLIYSASNLASGVPARFSGSGSGTSYSLTISRMEAEDAATYYCQQRSSYPWTFGGGTKLEIKR
notes: Mouse light chain and heavy chain Fd cloned in phagemid pRL4; purified over a Ni column; detected by an HA tag; also called mouse C1; murine antibody C1
binds: all assays above
